Measured data: PubChem BioAssay AID1259254 (NCATS, 2017)
In all, the deposit lists about 59,000 reagents; this is a random part of them. Over the whole deposit, about 1,550 (2.6%) were called active. 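G2 share is only a proxy for re-replication; each gene was hit by three separate siRNAs, and active genes were retested.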 Raw values are not corrected between plates. Reagents against one gene are numbered here. Not stated in the record: the amount of reagent.

Aim: 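Gene knock-downs that lead to re-replication, shown by excess G2 DNA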 (primary screen)
Cell system: human HCT116 colorectal cancer cells
Knock-down reagent: single siRNA against human genes
Duration: 3 days
Detection: 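Nuclei stained with Hoechst and imaged; cell-cycle phase assigned by DNA content; G2 share scaled per plate, non-targeting siRNA 0%, GMNN siRNA 100%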
Scale: G2 robust z-score and G2 cells, % of GMNN control: higher = more G2 cells, more excess DNA replication; raw share of cells in G2: higher = larger share of cells with G2 DNA content
Call rule: 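Active siRNAs have a G2 robust z of 5 or more median absolute deviations over the median, which in these data means about 38% or higher of GMNN control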

| target gene | reagent no. | G2 robust z-score | G2 cells, % of GMNN control | raw share of cells in G2 (%) | call |
| --- | --- | --- | --- | --- | --- |
| MARCHF5 | 1 | 0.204 | 4.4 | 7.95 | inactive |
| MARCHF5 | 2 | -0.629 | -1.46 | 3.7 | inactive |
| MARCHF5 | 3 | -0.376 | 0.32 | 3.92 | inactive |
| PARP4 | 1 | 0.355 | 5.47 | 6.58 | inactive |
| PARP4 | 2 | 0.107 | 3.72 | 5.38 | inactive |
| PARP4 | 3 | 1.17 | 11.2 | 9.06 | inactive |
| CC2D1B | 1 | 0.0431 | 3.27 | 4.77 | inactive |
| CC2D1B | 2 | -0.682 | -1.83 | 2.34 | inactive |
| CC2D1B | 3 | -0.593 | -1.2 | 2.38 | inactive |
| CHUK | 1 | 0.389 | 5.7 | 7.49 | inactive |
| CHUK | 2 | -0.548 | -0.89 | 5.11 | inactive |
| CHUK | 3 | 0.223 | 4.54 | 5.62 | inactive |
| TRIM21 | 1 | 4.84 | 37 | 18.1 | inactive |
| TRIM21 | 2 | 2.96 | 23.8 | 12.7 | inactive |
| TRIM21 | 3 | -0.537 | -0.812 | 3.69 | inactive |
| SPDYE2 | 1 | 0.376 | 5.61 | 5.79 | inactive |
| SPDYE2 | 2 | -0.523 | -0.71 | 3.15 | inactive |
| SPDYE2 | 3 | -0.492 | -0.493 | 2.95 | inactive |
| SPDYE2 | 4 | -0.653 | -1.63 | 2.58 | inactive |
| SPDYE2 | 5 | -0.61 | -1.32 | 2.77 | inactive |
| SPDYE2 | 6 | -0.0413 | 2.68 | 5.14 | inactive |
| SYT15 | 1 | 1.6 | 14.3 | 7.82 | inactive |
| SYT15 | 2 | -0.781 | -2.53 | 4.77 | inactive |
| SYT15 | 3 | 3.62 | 28.5 | 12.6 | inactive |
| NOSIP | 1 | -1 | -4.07 | 1.97 | inactive |
| NOSIP | 2 | -0.56 | -0.975 | 3.48 | inactive |
| NOSIP | 3 | 0.475 | 6.31 | 6.94 | inactive |
| MXI1 | 1 | -0.556 | -0.946 | 4.4 | inactive |
| MXI1 | 2 | -0.495 | -0.516 | 3.26 | inactive |
| MXI1 | 3 | 1.2 | 11.4 | 7.25 | inactive |
